# Source: article doi:10.1101/2023.08.30.555458
# Where two headings read alike, the source gives them in different places. No constants are given. Whether binding was seen depends on the method and setting. Binding seen in cells or lysates may run through a third protein. A result given as binding can be weak or reduced; the word gives no strength.
# Experiments:
# [1] = biological target: T1, NUP62 (mouse (endogenous in NIH3T3 cells and BMDCs)) (UniProt Q63850); assay: proximity ligation
# T1 sequence: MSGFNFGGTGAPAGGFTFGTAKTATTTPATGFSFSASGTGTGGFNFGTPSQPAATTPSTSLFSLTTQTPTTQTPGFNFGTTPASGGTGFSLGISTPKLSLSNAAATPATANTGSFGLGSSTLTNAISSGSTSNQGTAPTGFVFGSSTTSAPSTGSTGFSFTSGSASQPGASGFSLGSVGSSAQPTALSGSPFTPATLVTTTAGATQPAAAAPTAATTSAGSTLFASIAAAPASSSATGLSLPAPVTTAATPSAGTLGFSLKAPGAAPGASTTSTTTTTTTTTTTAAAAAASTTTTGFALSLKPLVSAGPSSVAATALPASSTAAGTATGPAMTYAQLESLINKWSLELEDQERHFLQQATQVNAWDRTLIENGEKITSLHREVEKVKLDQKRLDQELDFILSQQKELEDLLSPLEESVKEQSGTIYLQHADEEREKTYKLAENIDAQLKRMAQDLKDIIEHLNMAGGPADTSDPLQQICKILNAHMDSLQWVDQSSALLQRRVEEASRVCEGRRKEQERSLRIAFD
# [2] = biological target: T1, NUP62 (mouse (endogenous in NIH3T3 cells and BMDCs)); assay: proximity ligation; remark: listed apart in the source
substance,measurement,setting,value
Moloney murine leukemia virus capsid protein (p30),binding,[1],binds
same,binding,[2],binds
